Reference: US20250000812A1, “NANO-SUSPENSIONS AND AMORPHOUS SOLID DISPERSIONS OF HYDROPHOBIC AGENTS AND METHODS OF USE THEREOF” (Genentech, Inc., priority 2022, published 2025)

Experiment: Drug concentration (deposition) analysis of printed pattern by HPLC
Details: after thermal inkjet printing
Description: Drug concentration analyses were performed on the printed nano-suspension pattern from Example 2 using a high performance liquid chromatography (HPLC) system equipped with a quaternary pump, a photodiode array UV-Vis detector, and a reversed-phase alkylsilane column (3.5 μm particle size, 50×4.6 mm dimension). The printed patterns from Example 2 were cut and were then washed and fully dissolved with 1:1 acetonitrile:water. The resulting solutions were then analyzed by HPLC with drug concentrations compared to standards of known concentration. The mobile phases of the HPLC process consisted of 0.05% trifluoroacetic acid in water and in acetonotrile. A gradient elution was utilized with the acetonitrile mobile phase increasing from 2 to 65% over 6.5 min at a flow rate of 1.25 mL/min. The column was heated at 30° C. and the detection was carried out at 254 nm.

COc1ccc2cc([C@H](C)C(=O)O)ccc2c1 [naproxen, Naproxen]
stability throughout the inkjet printing process (degradants or impurities by HPLC): no presence of degradants or other impurities
